According to PMC10649752, “Design and Synthesis of Novel Chalcone Derivatives: Anti-Breast Cancer Activity Evaluation and Docking Study” (International Journal of Molecular Sciences, 2023):

These compounds were tested on human normal hepatocyte L-O2 (assay: CCK-8 cytotoxicity against normal hepatocyte L-O2 cells). Conditions: ratio L-02 IC50/MCF-7 IC50.
Type: cell-based
Protocol: We have selected compounds A7, A8, A9, and A14 with relatively low IC50 values, which are considered to have more potential and are more meaningful for further research. The toxic effects of compounds A7, A8, A9, and A14 on normal hepatocytes cells L-O2 were assessed in this work to examine the selective toxicity of the new compounds on cancer cells without harming normal cells. The selectivity index was calculated as a ratio of L-02 IC50/MCF-7 IC50 for these four compounds. […] Therefore, A8 and A14 were chosen as representative medications for future research after thorough evaluation.
DMEM high glucose medium and fetal calf serum were obtained from Gibco (New York, NY, USA), and cell counting Kit-8 solution was purchased from Meilunbio (Dalian, China). Paraformaldehyde and Crystal Violet were purchased from Biosharp (Hefei, China). The MCF-7 and L-02 cell lines were purchased from the Shanghai Institute of Biochemistry (Shanghai, China) All the target compounds and 5-fluorouracil (5-Fu) were dissolved with DMSO at a concentration of 20 mM. Cell culture medium was a mixture of DMEM medium, 10% fetal bovine serum, and 1% penicillin–streptomycin solution stored at […]. The cells were grown at 37 °C under 5% CO2.
Cells were seeded into 96 well plates with 4000 cells/well using DMEM solution and incubated in a humid atmosphere containing 5% CO2 at 37 °C for 24 h. Compounds with different concentrations (200 μM, 100 μM, 50 μM, 25 μM, 12.5 μM, 6.25 μM, 3.125 μM, 1.5625 μM) were added to the culture medium for 24 h. After that, CCK-8 reagent (10 μL) was added under dark conditions and incubated the plate in a CO2 incubator at 37 °C for 2 h. After incubation, the absorbance was measured using an enzyme-linked immunosorbent assay at a wavelength of 450 nm. Cell survival rate was calculated as a percentage of the control group.
By using Graph Pad Prism 8.0 software, the concentration that inhibits 50% of maximum cell proliferation was determined to be IC50 value.

SMILES | Selectivity Index (SI)
COc1cc(C(=O)/C=C/c2ccc(C(=O)NCC3CC3)cc2)cc(OC)c1OC [Compound A9, (E)-N-(cyclopropylmethyl)-4-(3-oxo-3-(3,4,5-trimethoxyphenyl)prop-1-en-1-yl) benzamide] | 1.80
COc1cc(C(=O)/C=C/c2ccc(C(=O)OCCCSc3ccncc3)cc2)cc(OC)c1OC [Compound A14, 3-(pyridin-4-ylthio) propyl (E)-4-(3-oxo-3-(3,4,5-trimethoxyphenyl)prop-1-en-1-yl) benzoate] | 4.21
COc1cc(C(=O)/C=C/c2ccc(C(=O)NCc3cccs3)cc2)cc(OC)c1OC [Compound A7, (E)-4-(3-oxo-3-(3,4,5-trimethoxyphenyl)prop-1-en-1-yl)-N-(thiophen-2-ylmethyl) benzamide] | 2.35
